Results are given in words; binding and its absence hold for the method and conditions named. Binding can be weak; no strength is given.
Biological target: insulin-like growth factor 2 receptor (IGF2R) on rat hepatic stellate cells HSC-T6 (rat)
Test: flow cytometry, uptake of 5-FAM labelled peptide by HSC-T6 cells, 1 h

- binding: binds
Binder: VHWDFRQWWQPS (5-FAM label (position not given)) [Peptide-431]
